Test results reported in the supplement of paper PMC3353916.

Test system: Sindbis virus TE/5'2J-GFP
Assay: percent infected (GFP+ in RFP+ ISG-expressing cells); higher = more infection (less antiviral activity)
Settings: experiment: primary screen (single well)

Q: With “MEPAPARSPRPQQDPARPQEPTMPPPETPSEGRQPSPSPSPTERAPASEEEFQFLRCQQCQAEAKCPKLLPCLHTLCSGCLEASGMQCPICQAPWPLGADTPALDNVFFESLQRRLSVYRQIVDAQAVCTRCKESADFWCFECEQLLCAKCFEAHQWFLKHEARPLAELRNQSVREFLDGTRKTNNIFCSNPNHRTPTLTSIYCRGCSKPLCCSCALLDSSHSELKCDISAEIQQRQEELDAMTQALQEQDSAFGAVHAQMHAAVGQLGRARAETEELIRERVRQVVAHVRAQERELLEAVDARYQRDYEEMASRLGRLDAVLQRIRTGSALVQRMKCYASDQEVLDMHGFLRQALCRLRQEEPQSLQAAVRTDGFDEFKVRLQDLSSCITQGKDAAVSKKASPEAASTPRDPIDVDLPEEAERVKAQVQALGLAEAQPMAVVQSVPGAHPVPVYAFSIKGPSYGEDVSNTTTAQKRKCSQTQCPRKVIKMESEEGKEARLARSSPEQPRPSTSKAVSPPHLDGPPSPRSPVIGSEVFLPNSNHVASGAGEAEERVVVISSSEDSDAENSSSRELDDSSSESSDLQLEGPSTLRVLDENLADPQAEDRPLVFFDLKIDNETQKISQLAAVNRESKFRVVIQPEAFFSIYSKAVSLEVGLQHFLSFLSSMRRPILACYKLWGPGLPNFFRALEDINRLWEFQEAISGFLAALPLIRERVPGASSFKLKNLAQTYLARNMSERSAMAAVLAMRDLCRLLEVSPGPQLAQHVYPFSSLQCFASLQPLVQAAVLPRAEARLLALHNVSFMELLSAHRRDRQGGLKKYSRYLSLQTTTLPPAQPAFNLQALGTYFEGLLEGPALARAEGVSTPLAGRGLAERASQQS [PML]” as the sequence, how does the percent infected (BHK/HA-Zeo (control)) read?
A: The percent infected was 98.8%.

Q: What about the percent infected (BHK/NZAP-Zeo (ZAP)) of the same sequence?
A: The percent infected was 93.3%.

Q: With “MEQHFLGCVKRAWDSAEVAPEPQPPPIVSSEDRGPWPLPLYPVLGEYSLDSCDLGLLSSPCWRLPGVYWQNGLSPGVQSTLEPSTAKPTEFSWPGTQKQQEAPVEEVGQAEEPDRLRLQQLPWSSPLHPWDRQQDTEVCDSGCLLERRHPPALQPWRHLPGFSDCLEWILRVGFAAFSVLWACCSRICGAKQP [C5orf39]” as the sequence, how does the percent infected (BHK/HA-Zeo (control)) read?
A: The percent infected was 96.8%.

Q: And the percent infected (BHK/NZAP-Zeo (ZAP))?
A: Its percent infected is 48.1%.

Q: “MEQWDHFHNQQEDTDSCSESVKFDARSMTALLPPNPKNSPSLQEKLKSFKAALIALYLLVFAVLIPLIGIVAAQLLKWETKNCSVSSTNANDITQSLTGKGNDSEEEMRFQEVFMEHMSNMEKRIQHILDMEANLMDTEHFQNFSMTTDQRFNDILLQLSTLFSSVQGHGNAIDEISKSLISLNTTLLDLQLNIENLNGKIQENTFKQQEEISKLEERVYNVSAEIMAMKEEQVHLEQEIKGEVKVLNNITNDLRLKDWEHSQTLRNITLIQGPPGPPGEKGDRGPTGESGPRGFPGPIGPPGLKGDRGAIGFPGSRGLPGYAGRPGNSGPKGQKGEKGSGNTLTPFTKVRLVGGSGPHEGRVEILHSGQWGTICDDRWEVRVGQVVCRSLGYPGVQAVHKAAHFGQGTGPIWLNEVFCFGRESSIEECKIRQWGTRACSHSEDAGVTCTL [MSR1]” was tested. Which percent infected (BHK/HA-Zeo (control)) did it give?
A: The percent infected was 98.6%.

Q: And the percent infected (BHK/NZAP-Zeo (ZAP))?
A: Its percent infected is 97.2%.

Q: What does the source list for “MERISAFFSSIWDTILTKHQEGIYNTICLGVLLGLPLLVIITLLFICCHCCWSPPGKRGQQPEKNKKKKKKKKKKDEEDLWISAQPKLLQMEKRPSLPV [KIAA0040]”?
A: percent infected (BHK/HA-Zeo (control)): 97.2%; percent infected (BHK/NZAP-Zeo (ZAP)): 81.2%

Q: Which percent infected (BHK/HA-Zeo (control)) does the source give for “MESKYKEILLLTGLDNITDEELDRFKFFLSDEFNIATGKLHTANRIQVATLMIQNAGAVSAVMKTIRIFQKLNYMLLAKRLQEEKEKVDKQYKSVTKPKPLSQAEMSPAASAAIRNDVAKQRAAPKVSPHVKPEQKQMVAQQESIREGFQKRCLPVMVLKAKKPFTFETQEGKQEMFHATVATEKEFFFVKVFNTLLKDKFIPKRIIIIARYYRHSGFLEVNSASRVLDAESDQKVNVPLNIIRKAGETPKINTLQTQPLGTIVNGLFVVQKVTEKKKNILFDLSDNTGKMEVLGVRNEDTMKCKEGDKVRLTFFTLSKNGEKLQLTSGVHSTIKVIKAKKKT [AIM2]” here?
A: The percent infected was 97.3%.

Q: And the percent infected (BHK/NZAP-Zeo (ZAP))?
A: Its percent infected is 85.1%.

Q: With “METGFPAIMYPGSFIGGWGEEYLSWEGPGLPDFVFQQQPVESEAMHCSNPKSGVVLATVARGPDACQILTRAPLGQDPPQRTVLGLLTANGQYRRTCGQGITRIRCYSGSENAFPPAGKKALPDCGVQEPPKQGFDIYMDELEQGDRDSCSVREGMAFEDVYEVDTGTLKSDLHFLLDFNTVSPMLVDSSLLSQSEDISSLGTDVINVTEYAEEIYQYLREAEIRHRPKAHYMKKQPDITEGMRTILVDWLVEVGEEYKLRAETLYLAVNFLDRFLSCMSVLRGKLQLVGTAAMLLASKYEEIYPPEVDEFVYITDDTYTKRQLLKMEHLLLKVLAFDLTVPTTNQFLLQYLRRQGVCVRTENLAKYVAELSLLEADPFLKYLPSLIAAAAFCLANYTVNKHFWPETLAAFTGYSLSEIVPCLSELHKAYLDIPHRPQQAIREKYKASKYLCVSLMEPPAVLLLQ [CCNA1]” as the sequence, how does the percent infected (BHK/HA-Zeo (control)) read?
A: Its percent infected is 98.4%.

Q: What about the percent infected (BHK/NZAP-Zeo (ZAP)) of the same sequence?
A: The percent infected was 97.6%.

Q: Which results are given for “METLSNASGTFAIRLLKILCQDNPSHNVFCSPVSISSALAMVLLGAKGNTATQMAQALSLNTEEDIHRAFQSLLTEVNKAGTQYLLRTANRLFGEKTCQFLSTFKESCLQFYHAELKELSFIRAAEESRKHINTWVSKKTEGKIEELLPGSSIDAETRLVLVNAIYFKGKWNEPFDETYTREMPFKINQEEQRPVQMMYQEATFKLAHVGEVRAQLLELPYARKELSLLVLLPDDGVELSTVEKSLTFEKLTAWTKPDCMKSTEVEVLLPKFKLQEDYDMESVLRHLGIVDAFQQGKADLSAMSAERDLCLSKFVHKSFVEVNEEGTEAAAASSCFVVAECCMESGPRFCADHPFLFFIRHNRANSILFCGRFSSP [SERPINB9]”?
A: percent infected (BHK/HA-Zeo (control)): 97.3%; percent infected (BHK/NZAP-Zeo (ZAP)): 88.5%

Q: For “MEVTTRLTWNDENHLRKLLGNVSLSLLYKSSVHGGSIEDMVERCSRQGCTITMAYIDYNMIVAFMLGNYINLHESSTEPNDSLWFSLQKKNDTTEIETLLLNTAPKIIDEQLVCRLSKTDIFIICRDNKIYLDKMITRNLKLRFYGHRQYLECEVFRVEGIKDNLDDIKRIIKAREHRNRLLADIRDYRPYADLVSEIRILLVGPVGSGKSSFFNSVKSIFHGHVTGQAVVGSDITSITERYRIYSVKDGKNGKSLPFMLCDTMGLDGAEGAGLCMDDIPHILKGCMPDRYQFNSRKPITPEHSTFITSPSLKDRIHCVAYVLDINSIDNLYSKMLAKVKQVHKEVLNCGIAYVALLTKVDDCSEVLQDNFLNMSRSMTSQSRVMNVHKMLGIPISNILMVGNYASDLELDPMKDILILSALRQMLRAADDFLEDLPLEETGAIERALQPCI [IFI44L]”, which percent infected (BHK/HA-Zeo (control)) is on record?
A: Its percent infected is 97.9%.

Q: And the percent infected (BHK/NZAP-Zeo (ZAP))?
A: Its percent infected is 82%.

Q: For “MFAKGKGSAVPSDGQAREKLALYVYEYLLHVGAQKSAQTFLSEIRWEKNITLGEPPGFLHSWWCVFWDLYCAAPERRDTCEHSSEAKAFHDYSAAAAPSPVLGNIPPNDGMPGGPIPPGFFQGPPGSQPSPHAQPPPHNPSSMMGPHSQPFMSPRYAGGPRPPIRMGNQPPGGVPGTQPLLPNSMDPTRQQGHPNMGGSMQRMNPPRGMGPMGPGPQNYGSGMRPPPNSLGPAMPGINMGPGAGRPWPNPNSANSIPYSSSSPGTYVGPPGGGGPPGTPIMPSPADSTNSSDNIYTMINPVPPGGSRSNFPMGPGSDGPMGGMGGMEPHHMNGSLGSGDIDGLPKNSPNNISGISNPPGTPRDDGELGGNFLHSFQNDNYSPSMTMSV [SSBP3]”, which percent infected (BHK/HA-Zeo (control)) is on record?
A: Its percent infected is 89.2%.

Q: And the percent infected (BHK/NZAP-Zeo (ZAP))?
A: The percent infected was 48.9%.

Q: With “MFLLPLPAAGRVVVRRLAVRRFGSRSLSTADMTKGLVLGIYSKEKEDDVPQFTSAGENFDKLLAGKLRETLNISGPPLKAGKTRTFYGLHQDFPSVVLVGLGKKAAGIDEQENWHEGKENIRAAVAAGCRQIQDLELSSVEVDPCGDAQAAAEGAVLGLYEYDDLKQKKKMAVSAKLYGSGDQEAWQKGVLFASGQNLARQLMETPANEMTPTRFAEIIEKNLKSASSKTEVHIRPKSWIEEQAMGSFLSVAKGSDEPPVFLEIHYKGSPNANEPPLVFVGKGITFDSGGISIKASANMDLMRADMGGAATICSAIVSAAKLNLPINIIGLAPLCENMPSGKANKPGDVVRAKNGKTIQVDNTDAEGRLILADALCYAHTFNPKVILNAATLTGAMDVALGSGATGVFTNSSWLWNKLFEASIETGDRVWRMPLFEHYTRQVVDCQLADVNNIGKYRSAGACTAAAFLKEFVTHPKWAHLDIAGVMTNKDEVPYLRKGMTGRPTRTLIEFLLRFSQDNA [LAP3]” as the sequence, how does the percent infected (BHK/HA-Zeo (control)) read?
A: Its percent infected is 97.1%.

Q: And the percent infected (BHK/NZAP-Zeo (ZAP))?
A: Its percent infected is 92.3%.

Q: What does the source list for “MFSWMGRQAGGRERAGGADAVQTVTGGLRSLYLRKVLPLEEAYRFHEFHSPALEDADFENKPMILLVGQYSTGKTTFIRYLLEQDFPGMRIGPEPTTDSFIAVMYGETEGSTPGNALVVDPKKPFRKLSRFGNAFLNRFMCSQLPNQVLKSISVIDSPGILSGEKQRISRGYDFCQVLQWFAERVDRIILLFDAHKLDISDEFSEAIKAFRGQDDKIRVVLNKADQVDTQQLMRVYGALMWSLGKVINTPEVLRVYIGSFWAQPLQNTDNRRLFEAEAQDLFRDIQSLPQKAAVRKLNDLIKRARLAKVHAYIISYLKKEMPSVFGKENKKRELISRLPEIYIQLQREYQISAGDFPEVKAMQEQLENYDFTKFHSLKPKLIEAVDNMLSNKISPLMNLISQEETSTPTQLVQGGAFDGTTEGPFNQGYGEGAKEGADEEEWVVAKDKPVYDELFYTLSPINGKISGVNAKKEMVTSKLPNSVLGKIWKLADCDCDGMLDEEEFALAKHLIKIKLDGYELPSSLPPHLVPPSHRKSLPKAD [EHD4]”?
A: percent infected (BHK/HA-Zeo (control)): 98.1%; percent infected (BHK/NZAP-Zeo (ZAP)): 94.3%

Q: What does the source list for “MGAQLCFEANAKAPREALRFHAEAKGAQVRLDTRGCIAHRRTTFHDGIVFSQRPVRLGERVALRVLREESGWCGGLRVGFTRLDPACVSVPSLPPFLCPDLEEQSPTWAAVLPEGCALTGDLVRFWVDRRGCLFAKVNAGCRLLLREGVPVGAPLWAVMDVYGTTKAIELLDPTASRLPTPMPWDLSNKAVPEPKATPGEECAICFYHAANTRLVPCGHTYFCRYCAWRVFSDTAKCPVCRWQIEAVAPAQGPPALRVEEGS [LINCR]”?
A: percent infected (BHK/HA-Zeo (control)): 91.4%; percent infected (BHK/NZAP-Zeo (ZAP)): 74.7%

Q: What does the source list for “MGDTFIRHIALLGFEKRFVPSQHYVYMFLVKWQDLSEKVVYRRFTEIYEFHKTLKEMFPIEAGAINPENRIIPHLPAPKWFDGQRAAENRQGTLTEYCSTLMSLPTKISRCPHLLDFFKVRPDDLKLPTDNQTKKPETYLMPKDGKSTATDITGPIILQTYRAIANYEKTSGSEMALSTGDVVEVVEKSESGWWFCQMKAKRGWIPASFLEPLDSPDETEDPEPNYAGEPYVAIKAYTAVEGDEVSLLEGEAVEVIHKLLDGWWVIRKDDVTGYFPSMYLQKSGQDVSQAQRQIKRGAPPRRSSIRNAHSIHQRSRKRLSQDAYRRNSVRFLQQRRRQARPGPQSPGSPLEEERQTQRSKPQPAVPPRPSADLILNRCSESTKRKLASAV [NCF1]”?
A: percent infected (BHK/HA-Zeo (control)): 98.2%; percent infected (BHK/NZAP-Zeo (ZAP)): 95.2%

Q: How did the percent infected (BHK/HA-Zeo (control)) turn out when “MGDWGFLEKLLDQVQEHSTVVGKIWLTVLFIFRILILGLAGESVWGDEQSDFECNTAQPGCTNVCYDQAFPISHIRYWVLQFLFVSTPTLVYLGHVIYLSRREERLRQKEGELRALPAKDPQVERALAAVERQMAKISVAEDGRLRIRGALMGTYVASVLCKSVLEAGFLYGQWRLYGWTMEPVFVCQRAPCPYLVDCFVSRPTEKTIFIIFMLVVGLISLVLNLLELVHLLCRCLSRGMRARQGQDAPPTQGTSSDPYTDQVFFYLPVGQGPSSPPCPTYNGLSSSEQNWANLTTEERLASSRPPLFLDPPPQNGQKPPSRPSSSASKKQYV [GJA4]” was run?
A: Its percent infected is 98.9%.

Q: And the percent infected (BHK/NZAP-Zeo (ZAP))?
A: The percent infected was 98.7%.

This is a noisy data set.
